From PubChem BioAssay AID651900 (Broad Institute, 2012)
This is one part of the list. The main result of the screen is listed elsewhere. These columns were measured beside it and carry no call.

test: cytotoxicity in NIH3T3 fibroblasts, dose response, cytotoxicity control, cell-based, plate reader, cherry-pick, two tests (AID 651900); settings: test 2 concentration series, at 26 µM

| SMILES | activity [%] |
| --- | --- |
| Cc1nc2nc(SCC(=O)N3CCC4(CC3)OCCO4)nn2c(C)c1Cc1ccccc1 | 7.84 |
| CC(=O)N1CCN(c2ccc([N+](=O)[O-])cc2C=C2C(=O)NC(=O)NC2=O)CC1 | 8.3 |
| COc1cc2c3cc1Oc1cc(ccc1O)C[C@@H]1c4c(cc(OC)c(O)c4Oc4cccc(c4)C[C@@H]3N(C)CC2)CC[N+]1(C)C | 2.02 |
| O=[N+]([O-])c1ccc(C[n+]2c(-c3ccccc3)cc(-c3ccccc3)cc2-c2ccccc2)cc1 | 0.126 |
| CCc1nc2ccc(Br)cc2c(=O)n1-c1ccccc1C(F)(F)F | 0.608 |
| COc1ccc2c(c1)c(C(=O)CN1CCC3(CC1)OCCO3)c(C)n2Cc1ccccc1 | -9.94 |
| O=c1[nH]c(N2CCN(Cc3ccc4c(c3)OCO4)CC2)nc2c1CCC2 | -6.66 |
